Results are given in words; binding and its absence hold for the method and conditions named. Binding seen in cells or lysates may run through a third protein. Some entries that bind do so weakly or less than the wild type. Tags and fused reporters may be left off the sequences shown.
Molecular target: T1, myc-tagged ATL1 (Atlastin-1) (mouse) (UniProt Q8BH66)
T1 sequence: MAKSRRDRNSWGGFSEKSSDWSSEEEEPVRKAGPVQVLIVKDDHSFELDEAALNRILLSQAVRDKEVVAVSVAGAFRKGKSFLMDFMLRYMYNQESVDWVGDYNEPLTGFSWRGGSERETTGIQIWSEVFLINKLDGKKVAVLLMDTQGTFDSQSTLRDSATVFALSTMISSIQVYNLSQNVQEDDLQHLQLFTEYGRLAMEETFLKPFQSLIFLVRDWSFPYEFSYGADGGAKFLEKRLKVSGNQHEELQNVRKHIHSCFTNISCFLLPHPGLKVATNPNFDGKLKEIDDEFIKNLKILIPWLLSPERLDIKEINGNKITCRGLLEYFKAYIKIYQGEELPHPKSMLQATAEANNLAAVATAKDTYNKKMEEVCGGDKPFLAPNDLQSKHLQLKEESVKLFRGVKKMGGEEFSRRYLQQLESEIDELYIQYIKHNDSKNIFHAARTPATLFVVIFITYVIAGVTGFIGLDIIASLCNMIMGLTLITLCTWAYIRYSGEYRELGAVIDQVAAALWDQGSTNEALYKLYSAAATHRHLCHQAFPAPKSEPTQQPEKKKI
Experiment: co-IP; COS-1 cells transfected with myc-tagged Atl1 and HA-tagged Vcp for 24 h; lysis in 50 mM Tris pH 7.4, 1% Triton X-100; immunoprecipitation with Myc antibodies or control non-immune IgG and protein A sepharose, 4 h at 4 °C; washes with 1% Triton X-100, 0.5 M LiCl; immunoblotting

binding: binds
Substance: HA-tagged VCP (valosin-containing protein) (from UniProt Q01853 1-806)
